# Some of these results come from one statement about several compounds together.
# Sequences of proteins named here, by UniProt entry; tags and fusion partners are left off. Residues count along the entry.
# UniProt P02462, 173-1669: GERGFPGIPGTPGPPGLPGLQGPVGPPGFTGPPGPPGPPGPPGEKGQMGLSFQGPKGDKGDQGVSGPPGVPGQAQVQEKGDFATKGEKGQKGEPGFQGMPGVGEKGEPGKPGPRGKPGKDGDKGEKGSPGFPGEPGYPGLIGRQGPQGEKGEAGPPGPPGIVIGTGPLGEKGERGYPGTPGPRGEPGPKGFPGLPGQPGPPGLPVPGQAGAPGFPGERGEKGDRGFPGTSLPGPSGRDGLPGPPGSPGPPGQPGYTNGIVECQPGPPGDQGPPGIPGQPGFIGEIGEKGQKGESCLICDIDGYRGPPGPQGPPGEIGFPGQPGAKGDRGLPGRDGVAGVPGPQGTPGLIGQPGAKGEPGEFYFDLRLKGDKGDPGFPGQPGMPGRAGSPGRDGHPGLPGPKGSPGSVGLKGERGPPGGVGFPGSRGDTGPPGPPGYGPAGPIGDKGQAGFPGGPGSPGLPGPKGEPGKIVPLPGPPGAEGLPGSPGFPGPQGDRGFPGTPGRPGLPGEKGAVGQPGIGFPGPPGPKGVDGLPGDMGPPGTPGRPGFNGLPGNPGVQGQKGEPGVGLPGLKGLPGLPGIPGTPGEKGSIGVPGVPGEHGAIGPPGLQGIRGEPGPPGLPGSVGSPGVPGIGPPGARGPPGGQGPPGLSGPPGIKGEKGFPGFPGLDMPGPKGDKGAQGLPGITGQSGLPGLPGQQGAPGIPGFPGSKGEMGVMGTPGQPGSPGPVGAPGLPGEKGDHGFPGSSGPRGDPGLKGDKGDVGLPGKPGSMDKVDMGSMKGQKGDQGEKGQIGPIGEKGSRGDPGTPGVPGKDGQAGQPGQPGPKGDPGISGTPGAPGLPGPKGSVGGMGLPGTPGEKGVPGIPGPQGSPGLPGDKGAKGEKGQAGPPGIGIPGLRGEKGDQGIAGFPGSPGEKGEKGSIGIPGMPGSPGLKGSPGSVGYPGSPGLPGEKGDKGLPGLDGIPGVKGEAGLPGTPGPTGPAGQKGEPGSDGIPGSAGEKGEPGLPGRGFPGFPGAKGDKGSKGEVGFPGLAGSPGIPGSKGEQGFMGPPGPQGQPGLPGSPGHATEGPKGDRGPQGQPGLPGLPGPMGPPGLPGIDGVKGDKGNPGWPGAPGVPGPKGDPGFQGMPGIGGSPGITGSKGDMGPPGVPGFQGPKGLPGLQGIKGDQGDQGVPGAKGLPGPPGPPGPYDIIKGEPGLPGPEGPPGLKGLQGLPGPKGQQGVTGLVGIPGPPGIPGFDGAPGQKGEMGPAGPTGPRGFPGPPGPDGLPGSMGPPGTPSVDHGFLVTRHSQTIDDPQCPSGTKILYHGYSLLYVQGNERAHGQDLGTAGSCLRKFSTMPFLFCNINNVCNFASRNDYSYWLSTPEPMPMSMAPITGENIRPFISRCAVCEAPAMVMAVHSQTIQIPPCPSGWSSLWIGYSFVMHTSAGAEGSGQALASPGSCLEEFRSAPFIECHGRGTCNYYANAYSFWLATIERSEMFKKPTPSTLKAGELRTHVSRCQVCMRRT
# UniProt P08572, 184-1712: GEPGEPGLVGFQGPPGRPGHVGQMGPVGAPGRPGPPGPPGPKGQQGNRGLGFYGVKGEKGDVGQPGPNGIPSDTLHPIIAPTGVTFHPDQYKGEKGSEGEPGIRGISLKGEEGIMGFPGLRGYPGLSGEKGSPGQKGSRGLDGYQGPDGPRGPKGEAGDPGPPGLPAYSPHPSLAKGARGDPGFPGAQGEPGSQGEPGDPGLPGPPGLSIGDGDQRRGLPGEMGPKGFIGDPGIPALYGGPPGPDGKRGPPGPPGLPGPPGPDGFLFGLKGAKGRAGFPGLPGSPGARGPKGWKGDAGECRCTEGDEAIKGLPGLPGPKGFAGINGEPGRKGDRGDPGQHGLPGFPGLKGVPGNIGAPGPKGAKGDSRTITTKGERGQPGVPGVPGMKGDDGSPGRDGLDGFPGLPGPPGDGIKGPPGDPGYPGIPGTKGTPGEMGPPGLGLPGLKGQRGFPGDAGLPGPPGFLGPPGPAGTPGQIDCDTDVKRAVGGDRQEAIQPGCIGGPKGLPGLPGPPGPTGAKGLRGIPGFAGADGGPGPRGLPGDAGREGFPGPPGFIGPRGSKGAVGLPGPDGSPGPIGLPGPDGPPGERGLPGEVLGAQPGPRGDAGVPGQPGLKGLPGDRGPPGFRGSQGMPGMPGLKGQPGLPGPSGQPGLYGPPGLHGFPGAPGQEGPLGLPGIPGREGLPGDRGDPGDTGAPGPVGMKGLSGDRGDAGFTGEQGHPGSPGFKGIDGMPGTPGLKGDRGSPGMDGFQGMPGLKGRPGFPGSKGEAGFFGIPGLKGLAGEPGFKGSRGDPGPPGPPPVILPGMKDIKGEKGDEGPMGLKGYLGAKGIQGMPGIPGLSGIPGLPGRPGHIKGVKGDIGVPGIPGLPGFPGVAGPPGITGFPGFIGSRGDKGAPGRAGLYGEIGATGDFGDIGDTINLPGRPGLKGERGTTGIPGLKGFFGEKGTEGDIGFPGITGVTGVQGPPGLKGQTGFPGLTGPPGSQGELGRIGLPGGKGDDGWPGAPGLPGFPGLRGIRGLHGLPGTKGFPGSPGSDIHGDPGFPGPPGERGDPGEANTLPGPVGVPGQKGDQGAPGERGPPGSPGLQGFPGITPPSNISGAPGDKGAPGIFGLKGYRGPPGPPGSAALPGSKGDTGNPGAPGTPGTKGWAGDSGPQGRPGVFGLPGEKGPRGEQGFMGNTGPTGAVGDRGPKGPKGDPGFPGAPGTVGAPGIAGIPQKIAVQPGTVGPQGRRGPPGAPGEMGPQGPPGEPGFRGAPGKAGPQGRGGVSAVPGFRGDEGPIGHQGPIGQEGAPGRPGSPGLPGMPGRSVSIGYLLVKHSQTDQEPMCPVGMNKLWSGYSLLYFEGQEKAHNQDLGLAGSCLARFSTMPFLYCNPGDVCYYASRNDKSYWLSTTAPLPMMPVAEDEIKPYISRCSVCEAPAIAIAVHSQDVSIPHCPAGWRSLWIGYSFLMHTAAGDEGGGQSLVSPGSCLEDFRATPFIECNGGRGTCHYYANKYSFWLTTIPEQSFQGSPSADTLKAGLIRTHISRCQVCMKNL
# Target: collagen IV (Homo sapiens, UniProt P02462+P08572)
# Experiment: Spot-membrane peptides, binding of radiolabeled collagen IV
# Details: membrane-bound 15 mer peptides
row,Substance,binding signal of radiolabeled collagen IV
1,"18: membrane-bound 15mer peptide of FOG1-A containing ARYLQK, SEQ ID NO:17 (NSIGEYARYLQKLND; membrane-bound; listed as Streptococcus sp.) [compound 18]",strong signal
2,"20: membrane-bound 15mer peptide of FOG1-A containing ARYLQK, SEQ ID NO:19 (ARYLQKLNDQFQEYY; membrane-bound; listed as Streptococcus sp.) [compound 20]",strong signal
3,"peptide 17: membrane-bound 15mer peptide of FOG1-A containing ARYLQK, SEQ ID NO:16 (KQNNSIGEYARYLQK; membrane-bound; listed as Streptococcus sp.)",strong signal
4,"peptide 19: membrane-bound 15mer peptide of FOG1-A containing ARYLQK, SEQ ID NO:18 (GEYARYLQKLNDQFQ; membrane-bound; listed as Streptococcus sp.)",strong signal

# Source: US8956612B2, “Peptide associated with rheumatic fever (PARF) and its use as a diagnostic marker” (Helmholtz-Zentrum für Infektionsforschung GmbH, priority 2006, dated 2015)
